# This is one part of the list.
# Amino acid sequences for entries named in this document (tags omitted). A change or cut given only in a name is not applied to a line headed by its entry.
# UniProt Q9BYW2: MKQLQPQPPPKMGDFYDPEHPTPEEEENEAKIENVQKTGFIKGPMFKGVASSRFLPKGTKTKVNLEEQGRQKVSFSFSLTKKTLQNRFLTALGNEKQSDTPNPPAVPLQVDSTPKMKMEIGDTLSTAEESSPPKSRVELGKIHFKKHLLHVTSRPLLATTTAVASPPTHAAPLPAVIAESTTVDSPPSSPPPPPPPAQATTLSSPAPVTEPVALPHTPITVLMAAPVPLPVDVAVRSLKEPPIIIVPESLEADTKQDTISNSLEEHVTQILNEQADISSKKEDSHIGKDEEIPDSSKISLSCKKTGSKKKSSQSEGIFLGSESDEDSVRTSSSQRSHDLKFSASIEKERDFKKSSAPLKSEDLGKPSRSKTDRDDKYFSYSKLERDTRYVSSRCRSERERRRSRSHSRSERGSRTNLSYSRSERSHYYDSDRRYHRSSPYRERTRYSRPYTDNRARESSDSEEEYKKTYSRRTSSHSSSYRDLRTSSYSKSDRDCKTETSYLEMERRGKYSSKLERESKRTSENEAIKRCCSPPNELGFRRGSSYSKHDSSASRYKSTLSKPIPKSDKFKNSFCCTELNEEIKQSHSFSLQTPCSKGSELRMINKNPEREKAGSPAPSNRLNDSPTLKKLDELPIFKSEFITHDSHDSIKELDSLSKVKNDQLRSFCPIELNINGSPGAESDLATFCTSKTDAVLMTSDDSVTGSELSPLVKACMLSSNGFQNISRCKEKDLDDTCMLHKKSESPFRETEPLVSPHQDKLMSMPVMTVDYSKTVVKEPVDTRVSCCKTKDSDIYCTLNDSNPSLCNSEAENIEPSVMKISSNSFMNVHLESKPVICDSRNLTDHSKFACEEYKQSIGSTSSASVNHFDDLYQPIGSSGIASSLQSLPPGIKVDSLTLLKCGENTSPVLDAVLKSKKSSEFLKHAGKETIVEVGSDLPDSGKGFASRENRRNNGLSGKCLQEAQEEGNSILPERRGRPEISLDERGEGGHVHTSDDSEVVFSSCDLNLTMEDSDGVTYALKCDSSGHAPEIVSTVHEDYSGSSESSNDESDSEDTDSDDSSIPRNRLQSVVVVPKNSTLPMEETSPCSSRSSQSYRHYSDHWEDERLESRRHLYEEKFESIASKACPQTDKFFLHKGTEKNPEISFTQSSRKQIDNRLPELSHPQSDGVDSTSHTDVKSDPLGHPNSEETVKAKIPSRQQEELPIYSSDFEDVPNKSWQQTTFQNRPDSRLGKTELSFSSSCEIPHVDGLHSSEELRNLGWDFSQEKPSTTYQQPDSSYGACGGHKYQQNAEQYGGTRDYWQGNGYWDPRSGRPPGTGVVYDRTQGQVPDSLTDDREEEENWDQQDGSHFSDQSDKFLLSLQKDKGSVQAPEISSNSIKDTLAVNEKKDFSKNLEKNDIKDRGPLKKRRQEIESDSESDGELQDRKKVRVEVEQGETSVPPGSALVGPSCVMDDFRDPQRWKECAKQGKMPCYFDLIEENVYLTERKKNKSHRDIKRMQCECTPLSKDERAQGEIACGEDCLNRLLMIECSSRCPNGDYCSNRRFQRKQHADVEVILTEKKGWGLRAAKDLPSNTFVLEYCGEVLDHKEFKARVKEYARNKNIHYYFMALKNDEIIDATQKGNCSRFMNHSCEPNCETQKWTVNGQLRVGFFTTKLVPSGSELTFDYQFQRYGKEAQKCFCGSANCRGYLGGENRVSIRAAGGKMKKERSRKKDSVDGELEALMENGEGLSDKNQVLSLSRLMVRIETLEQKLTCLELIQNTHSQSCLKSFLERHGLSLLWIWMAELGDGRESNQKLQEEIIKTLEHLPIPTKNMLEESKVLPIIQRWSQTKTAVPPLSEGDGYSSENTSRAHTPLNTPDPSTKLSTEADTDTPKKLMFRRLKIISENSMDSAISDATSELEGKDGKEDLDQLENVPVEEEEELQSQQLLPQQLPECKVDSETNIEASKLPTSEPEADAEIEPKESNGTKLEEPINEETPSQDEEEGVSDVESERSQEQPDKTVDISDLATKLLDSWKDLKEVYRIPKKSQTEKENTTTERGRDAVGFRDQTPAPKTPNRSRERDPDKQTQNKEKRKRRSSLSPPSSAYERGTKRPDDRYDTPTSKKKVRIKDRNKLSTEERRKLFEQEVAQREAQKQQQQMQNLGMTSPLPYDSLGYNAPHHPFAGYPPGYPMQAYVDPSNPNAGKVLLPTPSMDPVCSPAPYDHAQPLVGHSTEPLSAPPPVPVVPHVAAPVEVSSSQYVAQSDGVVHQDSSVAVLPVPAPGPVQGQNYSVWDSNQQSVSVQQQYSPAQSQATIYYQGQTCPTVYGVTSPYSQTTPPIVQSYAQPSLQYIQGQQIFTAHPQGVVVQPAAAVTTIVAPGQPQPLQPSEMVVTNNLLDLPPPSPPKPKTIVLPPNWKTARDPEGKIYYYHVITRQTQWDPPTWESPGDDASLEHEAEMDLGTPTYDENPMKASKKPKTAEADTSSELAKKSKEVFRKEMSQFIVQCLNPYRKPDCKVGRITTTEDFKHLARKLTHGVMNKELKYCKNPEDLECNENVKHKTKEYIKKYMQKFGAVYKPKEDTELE
# UniProt Q92599: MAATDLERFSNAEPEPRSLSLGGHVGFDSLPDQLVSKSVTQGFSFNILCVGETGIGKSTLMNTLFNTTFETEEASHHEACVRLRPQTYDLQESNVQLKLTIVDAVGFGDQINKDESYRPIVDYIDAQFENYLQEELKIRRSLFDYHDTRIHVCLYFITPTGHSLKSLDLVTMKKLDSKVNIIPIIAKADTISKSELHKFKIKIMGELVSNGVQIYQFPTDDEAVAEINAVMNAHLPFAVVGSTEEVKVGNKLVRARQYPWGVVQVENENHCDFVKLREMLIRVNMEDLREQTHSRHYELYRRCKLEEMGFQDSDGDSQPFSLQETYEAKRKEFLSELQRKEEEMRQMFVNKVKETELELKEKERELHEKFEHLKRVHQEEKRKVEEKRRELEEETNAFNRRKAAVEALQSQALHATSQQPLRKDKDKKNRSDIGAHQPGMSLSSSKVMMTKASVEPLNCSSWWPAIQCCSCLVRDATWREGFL
# UniProt Q562F6: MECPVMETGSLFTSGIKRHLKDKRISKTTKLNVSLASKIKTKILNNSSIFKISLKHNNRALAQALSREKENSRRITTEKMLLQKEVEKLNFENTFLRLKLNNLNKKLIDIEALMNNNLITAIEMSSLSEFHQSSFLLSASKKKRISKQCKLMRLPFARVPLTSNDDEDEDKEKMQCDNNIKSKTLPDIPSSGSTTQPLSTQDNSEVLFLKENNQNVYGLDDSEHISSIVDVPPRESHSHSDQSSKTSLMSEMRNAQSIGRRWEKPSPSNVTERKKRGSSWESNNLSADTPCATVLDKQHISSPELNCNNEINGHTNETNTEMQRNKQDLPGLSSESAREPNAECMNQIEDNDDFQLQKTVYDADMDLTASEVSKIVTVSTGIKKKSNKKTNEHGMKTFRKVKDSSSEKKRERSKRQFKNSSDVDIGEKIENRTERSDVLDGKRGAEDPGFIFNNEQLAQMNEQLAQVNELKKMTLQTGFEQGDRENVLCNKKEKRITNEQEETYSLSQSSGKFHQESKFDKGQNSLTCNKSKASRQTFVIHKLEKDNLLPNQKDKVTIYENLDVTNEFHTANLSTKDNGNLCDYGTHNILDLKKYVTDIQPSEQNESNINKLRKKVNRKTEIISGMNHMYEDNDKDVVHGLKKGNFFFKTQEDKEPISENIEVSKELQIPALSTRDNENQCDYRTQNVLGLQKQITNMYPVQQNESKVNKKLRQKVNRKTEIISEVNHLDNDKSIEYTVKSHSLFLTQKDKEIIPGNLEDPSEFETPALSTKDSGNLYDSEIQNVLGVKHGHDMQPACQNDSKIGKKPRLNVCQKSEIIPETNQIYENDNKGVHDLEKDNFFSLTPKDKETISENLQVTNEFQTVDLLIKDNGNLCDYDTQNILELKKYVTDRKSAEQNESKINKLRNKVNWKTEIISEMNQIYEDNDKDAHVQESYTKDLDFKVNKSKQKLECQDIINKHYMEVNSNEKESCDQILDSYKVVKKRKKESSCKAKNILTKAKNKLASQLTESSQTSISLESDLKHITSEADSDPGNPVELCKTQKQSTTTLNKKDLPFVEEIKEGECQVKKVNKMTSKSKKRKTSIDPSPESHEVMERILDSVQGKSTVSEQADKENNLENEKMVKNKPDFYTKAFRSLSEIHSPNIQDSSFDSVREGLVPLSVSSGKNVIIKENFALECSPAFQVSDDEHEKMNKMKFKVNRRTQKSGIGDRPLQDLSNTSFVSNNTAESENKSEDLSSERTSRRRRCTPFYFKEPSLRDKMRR
# UniProt O75746: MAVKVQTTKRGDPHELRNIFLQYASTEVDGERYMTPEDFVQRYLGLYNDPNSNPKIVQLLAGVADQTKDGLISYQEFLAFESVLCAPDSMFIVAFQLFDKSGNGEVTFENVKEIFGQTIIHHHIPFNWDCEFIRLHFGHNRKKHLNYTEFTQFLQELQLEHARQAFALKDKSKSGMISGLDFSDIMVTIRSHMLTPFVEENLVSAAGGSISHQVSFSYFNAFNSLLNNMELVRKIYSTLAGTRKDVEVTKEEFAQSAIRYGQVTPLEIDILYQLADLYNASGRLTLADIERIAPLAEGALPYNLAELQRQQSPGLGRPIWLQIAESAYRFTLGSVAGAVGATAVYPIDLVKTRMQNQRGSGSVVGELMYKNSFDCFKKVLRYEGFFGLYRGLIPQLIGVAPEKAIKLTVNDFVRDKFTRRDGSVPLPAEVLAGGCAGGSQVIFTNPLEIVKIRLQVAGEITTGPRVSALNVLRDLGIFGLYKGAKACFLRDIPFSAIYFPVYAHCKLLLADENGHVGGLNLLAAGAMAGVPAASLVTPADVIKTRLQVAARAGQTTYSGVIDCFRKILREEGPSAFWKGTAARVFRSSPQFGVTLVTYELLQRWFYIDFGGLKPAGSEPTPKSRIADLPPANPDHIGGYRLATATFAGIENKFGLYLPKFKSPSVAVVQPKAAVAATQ
# UniProt Q14141: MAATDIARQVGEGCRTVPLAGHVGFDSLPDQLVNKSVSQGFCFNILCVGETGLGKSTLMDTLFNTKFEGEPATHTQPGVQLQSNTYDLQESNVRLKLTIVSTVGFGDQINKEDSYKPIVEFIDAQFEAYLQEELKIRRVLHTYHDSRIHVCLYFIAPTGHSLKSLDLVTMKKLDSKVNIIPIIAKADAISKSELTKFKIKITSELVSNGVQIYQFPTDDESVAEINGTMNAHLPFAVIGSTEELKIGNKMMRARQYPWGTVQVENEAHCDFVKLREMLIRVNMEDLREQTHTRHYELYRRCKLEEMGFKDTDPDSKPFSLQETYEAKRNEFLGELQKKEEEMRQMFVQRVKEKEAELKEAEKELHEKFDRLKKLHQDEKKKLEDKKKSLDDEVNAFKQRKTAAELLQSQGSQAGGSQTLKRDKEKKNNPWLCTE
# UniProt Q8NC51: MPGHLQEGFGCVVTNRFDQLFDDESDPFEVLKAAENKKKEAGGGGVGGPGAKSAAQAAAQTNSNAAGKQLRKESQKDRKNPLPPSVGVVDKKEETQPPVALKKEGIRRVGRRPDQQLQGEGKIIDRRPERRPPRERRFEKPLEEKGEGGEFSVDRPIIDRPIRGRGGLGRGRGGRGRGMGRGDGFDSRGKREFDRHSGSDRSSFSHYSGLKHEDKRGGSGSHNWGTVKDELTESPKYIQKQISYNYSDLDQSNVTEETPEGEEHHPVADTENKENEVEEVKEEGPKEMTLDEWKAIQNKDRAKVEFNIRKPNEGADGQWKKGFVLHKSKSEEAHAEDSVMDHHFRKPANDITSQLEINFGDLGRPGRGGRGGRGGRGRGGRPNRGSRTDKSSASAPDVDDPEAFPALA
# UniProt P53007, whole entry, looked up: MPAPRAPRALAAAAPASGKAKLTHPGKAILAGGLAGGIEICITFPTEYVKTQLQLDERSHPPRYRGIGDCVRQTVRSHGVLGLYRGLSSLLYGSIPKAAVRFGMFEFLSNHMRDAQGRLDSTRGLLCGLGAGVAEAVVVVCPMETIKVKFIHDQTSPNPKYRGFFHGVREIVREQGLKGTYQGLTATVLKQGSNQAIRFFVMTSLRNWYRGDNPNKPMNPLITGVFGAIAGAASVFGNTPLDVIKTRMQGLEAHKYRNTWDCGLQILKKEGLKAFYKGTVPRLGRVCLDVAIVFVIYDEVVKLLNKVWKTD
# Compound: CC1Cc2ccccc2N1C(=O)C1CCCN(C1)C(=O)CCl (mixture of isomers) [TRIM25 ligand 11 (diastereomer mixture)]
# Assay: probe-labelled cysteine peptide fold change vs DMSO (competition) (log2 fold change); higher = less target engagement (more negative = stronger competition)
# Conditions: 10 µM; THP-1; incubation time: 4 h
# 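Further: competitive chemoproteomic profiling in live THP-1 cells with an iodoacetamide desthiobiotin (IA-DTB) probe, comparing probe-labelled peptide intensities in compound-treated cells against DMSO-treated controls.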
row,Target,probe-labelled cysteine peptide fold change
1,SEPT9_Q9UHD8_410+411_VHCCLYFIPATGHSLRPLDIEFMK (UniProt Q9UHD8),-0.00179
2,SLC1A5_Q15758_39_GLAAAEPTANGGLALASIEDQGAAAGGYCGSR (UniProt Q15758),-0.241
3,SH3KBP1_Q96B97_301_DCIDVGWWEGELNGRR (UniProt Q96B97),-0.0866
4,SETD2_Q9BYW2_1241_TELSFSSSCEIPHVDGLHSSEELR (UniProt Q9BYW2),0.0856
5,SEPT8_Q92599_80_STLMNTLFNTTFETEEASHHEACVR (UniProt Q92599),0.221
6,SIN3A_Q96ST3_1063_KAEQLMSDENCFK (UniProt Q96ST3),-0.0204
7,SGO2_Q562F6_681_DNENQCDYR (UniProt Q562F6),-0.0725
8,SLC25A12_O75746_563_AGQTTYSGVIDCFR (UniProt O75746),0.231
9,SEPT6_Q14141_47_SVSQGFCFNILCVGETGLGK (UniProt Q14141),0.436
10,SERBP1_Q8NC51_11_PGHLQEGFGCVVTNR (UniProt Q8NC51),0.103
11,SLC25A12_O75746_130_EIFGQTIIHHHIPFNWDCEFIR (UniProt O75746),0.209
12,SHMT1_P34896_335_VYQHQVVANCR (UniProt P34896),0.0178
13,SEPT6_Q14141_42+47_SVSQGFCFNILCVGETGLGK (UniProt Q14141),0.225
14,SF1_Q15637_292_CGGAGHIASDCK (UniProt Q15637),0.0115
15,SLC25A1_P53007_262_NTWDCGLQILK (UniProt P53007),-0.0206

# Looked up one by one from the list above:
row,Target,probe-labelled cysteine peptide fold change
9,SEPT6_Q14141_47_SVSQGFCFNILCVGETGLGK (UniProt Q14141),0.436
7,SGO2_Q562F6_681_DNENQCDYR (UniProt Q562F6),-0.0725

# Reference: the supplement of paper PMC12067093, “Discovery and optimisation of a covalent ligand for TRIM25 and its application to targeted protein ubiquitination” (Chemical Science, 2025)
